Record: PubChem BioAssay AID686943 (Drosophila RNAi Screening Center, 2013)
In all, the deposit lists about 23,000 reagents; shown is an unselected part of those with a known target gene and a result. 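Extra replicates exist only for a retested subset of genes; insulin dose and duration not given; both raised and lowered dpERK matter.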 The record does not give: the amount of reagent, the time to read-out.

- Aim: 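Search across the genome for regulators of signalling from receptor tyrosine kinase to ERK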 (primary screen)
- Cells: Drosophila S2R+ haemocyte-like cells expressing YFP-tagged ERK (Rolled)
- Reagent: long dsRNA against Drosophila genes
- Conditions: insulin stimulation versus unstimulated cells; dose and duration not given
- Detection: 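Per-plate z-scores of phospho-ERK immunostaining normalised to YFP-tagged ERK, measured with and without insulin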
- Reading the numbers: replicate 1, z-score of dpERK with insulin and replicate 2, z-score of dpERK with insulin: higher = more active ERK per ERK-YFP after insulin; replicate 1, z-score of dpERK under basal conditions: higher = more basal active ERK per ERK-YFP; replicate 1, z-score of ERK-YFP with insulin: higher = more YFP-tagged ERK signal

gene | amplicon | replicate 1, z-score of dpERK with insulin | replicate 2, z-score of dpERK with insulin | replicate 1, z-score of dpERK under basal conditions | replicate 1, z-score of ERK-YFP with insulin
HSPBAP1 (HSPB1 associated protein 1) | DRSC14567 | -0.6 | 0.01 | 1.41 | 0.39
CG43064 | DRSC09133 | -0.31 | 0.31 | 1.16 | -0.26
CG14419 | DRSC17916 | -0.24 | 0 | -0.38 | 0.47
CG12825 | DRSC06174 | 0.03 | 0.55 | 0.12 | 0.81
CG13408 | DRSC13534 | 0.33 | -0.66 | -0.21 | 0.35
CG13408 | DRSC14584 | -0.13 | -0.34 | -0.41 | 0.4
CG11069 | DRSC14289 | -0.01 | -0.24 | -0.48 | -0.78
Fbxl7 (F-box and leucine-rich repeat protein 7) | DRSC15553 | 1.38 | 0.39 | -0.52 | -0.24
Amph (Amphiphysin) | DRSC07578 | -0.59 | 0.1 | 0.19 | 1.02
CG4891 | DRSC01936 | 1.29 | 0.11 | -0.07 | -0.38
CG43103 | DRSC05643 | 0.65 | 0.3 | 1.55 | 0.38
oys (oysgedart) | DRSC05203 | -1.87 | -1.77 | -1.96 | -0.59
oys (oysgedart) | DRSC06751 | 0.35 | 0.01 | 0.31 | -0.27
obst-A (obstructor-A) | DRSC20543 | 0.55 | 0.57 | -0.05 | -0.01
CG17283 | DRSC15219 | 0.33 | 1.84 | -0.73 | 0.56
Rpn11 (Regulatory particle non-ATPase 11) | DRSC03422 | -3.24 | -2.65 | -3.15 | -1.89
Rac2 | DRSC11262 | -2.72 | -2.34 | -0.19 | 0.7
CG1492 | DRSC19605 | -0.32 | -0.62 | -0.46 | 0.42
LManIV (Lysosomal alpha-mannosidase IV) | DRSC03222 | 0.26 | -0.22 | -1.72 | -0.48
CG4743 | DRSC15636 | -0.36 | -0.11 | 0.11 | 0.97
CG33493 | DRSC10642 | 0.28 | 0.82 | 0.21 | 0.11
CG15145 | DRSC02446 | -0.19 | -0.1 | -0.53 | 0.24
CG33322 | DRSC03204 | 0.06 | 0.52 | 0.56 | -0.3
CR15821 (pseudo) | DRSC08481 | -0.33 | -0.02 | 0.3 | 0.59
CG18449 | DRSC06754 | -0.07 | 0.32 | 0.42 | 0.45
CG13875 | DRSC08345 | 0.19 | 0.35 | -0.62 | 0.01
CG14540 | DRSC14884 | -0.62 | -2.42 | -1.66 | -0.01
CG4036 | DRSC02735 | 0.1 | -0.26 | -0.08 | 0.02
APC7 (Anaphase Promoting Complex subunit 7) | DRSC17937 | 0.62 | 0.32 | 0.49 | 0.12
CG32036 | DRSC10362 | -0.63 | -0.08 | -1.13 | 0.25

6 consecutive reagents from above, quoted:
gene | amplicon | replicate 1, z-score of dpERK with insulin | replicate 2, z-score of dpERK with insulin | replicate 1, z-score of dpERK under basal conditions | replicate 1, z-score of ERK-YFP with insulin
CG43064 | DRSC09133 | -0.31 | 0.31 | 1.16 | -0.26
CG14419 | DRSC17916 | -0.24 | 0 | -0.38 | 0.47
CG12825 | DRSC06174 | 0.03 | 0.55 | 0.12 | 0.81
CG13408 | DRSC13534 | 0.33 | -0.66 | -0.21 | 0.35
CG13408 | DRSC14584 | -0.13 | -0.34 | -0.41 | 0.4
CG11069 | DRSC14289 | -0.01 | -0.24 | -0.48 | -0.78

Next records follow.
gene | amplicon | replicate 1, z-score of dpERK with insulin | replicate 2, z-score of dpERK with insulin | replicate 1, z-score of dpERK under basal conditions | replicate 1, z-score of ERK-YFP with insulin
CG14314 | DRSC14793 | -0.01 | 0.12 | 0.98 | -0.19
rpk (ripped pocket) | DRSC12386 | -0.25 | -0.05 | 0.84 | -0.05
rpk (ripped pocket) | DRSC21656 | 0.74 | 0.9 | -0.57 | -2.85
CG18539 | DRSC06766 | 0.51 | 0.52 | 1.13 | 0.54
CG11044 | DRSC06026 | -0.85 | 0.06 | -1.53 | 0.45
l(2)k09913 (lethal (2) k09913) | DRSC04699 | -1.33 | 0.05 | -0.93 | 1.91
svp (seven up) | DRSC12899 | -0.7 | -0.79 | 0.51 | 0.51
svp (seven up) | DRSC15311 | -5.1 | -2.85 | -3.37 | -2.99
svp (seven up) | DRSC17075 | 1.51 | 1.37 | 1.55 | -0.16
Cpr65Ea (Cuticular protein 65Ea) | DRSC11027 | 0.32 | -0.03 | 0.08 | 0.06
scrib (scribble) | DRSC13774 | -0.32 | -0.66 | 0.88 | 0.14
scrib (scribble) | DRSC13775 | -1.44 | -2.33 | -0.36 | -0.71
scrib (scribble) | DRSC15809 | 0.86 | 0.33 | -1.3 | -2.86
scrib (scribble) | DRSC17051 | 0.18 | -1.4 | -0.41 | -0.48
tHMG1 (testis-enriched HMG-box-containing protein 1) | DRSC16181 | 0.95 | -0.14 | 1.38 | 0.33
Lap1 | DRSC07454 | -1.36 | 0.24 | -0.73 | -0.19
zetaTry (zetaTrypsin) | DRSC07720 | 0.86 | 0.36 | -0.92 | 0.29
CG11037 | DRSC11631 | 0.44 | 0.58 | -0.12 | 0.16
Pyroxd1 (Pyridine nucleotide-disulfide oxidoreductase domain 1) | DRSC02098 | -0.26 | -0.02 | 0.05 | -0.74
CG14879 | DRSC15003 | 1.1 | -0.26 | -0.13 | -0.43
CG15449 | DRSC20521 | 0.52 | 0.27 | -0.06 | 1.04
CG43446 | DRSC13458 | 1.41 | -0.64 | -0.27 | 0.37
CG15721 | DRSC19688 | 0.53 | 0.36 | -0.46 | -0.79
nej (nejire) | DRSC18006 | 1 | -0.6 | -2.64 | -3.33
nej (nejire) | DRSC18801 | -1.95 | -2.66 | -2.32 | -0.87
dgt5 (dim gamma-tubulin 5) | DRSC07280 | -0.45 | -0.63 | 0.75 | 0.21
CG13454 | DRSC10001 | -0.5 | -0.32 | -0.24 | 0.72
